{
  "source": "the supplement of paper PMC8728848",
  "experiment_in_all_cases": "glycan array binding signal (z-score within array); higher = stronger binding",
  "settings_in_all_cases": "glycan notation: IUPAC condensed, linker removed",
  "key": {"Fuc(a1-2)Gal": {"molecular_target": "Fuc(a1-2)Gal", "outline": "(§1)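 The binding signal is a Z-score computed within each array and averaged over linkers. Arrays of the same protein sequence at different concentrations or buffers were also averaged together. Data originate from 3228 arrays in the Consortium for Functional Glycomics database, kept only where the protein sequence was available.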"}, "Fuc(a1-2)Gal(b1-3)GalNAc": {"molecular_target": "Fuc(a1-2)Gal(b1-3)GalNAc", "outline": "as §1"}, "[1]": {"molecular_target": "Fuc(a1-2)Gal(b1-3)GalNAc(a1-3)[Fuc(a1-2)]Gal(b1-4)Glc", "outline": "as §1"}, "[2]": {"molecular_target": "Fuc(a1-2)Gal(b1-3)GalNAc(a1-3)[Fuc(a1-2)]Gal(b1-4)GlcNAc", "outline": "as §1"}, "[3]": {"molecular_target": "Fuc(a1-2)Gal(b1-3)GalNAc(b1-3)Gal", "outline": "as §1"}, "[4]": {"molecular_target": "Fuc(a1-2)Gal(b1-3)GalNAc(b1-3)Gal(a1-4)Gal(b1-4)Glc", "outline": "as §1"}, "[5]": {"molecular_target": "Fuc(a1-2)Gal(b1-3)GalNAc(b1-4)[Neu5Ac(a2-3)]Gal(b1-4)Glc", "outline": "as §1"}, "Fuc(a1-2)Gal(b1-3)GlcNAc": {"molecular_target": "Fuc(a1-2)Gal(b1-3)GlcNAc", "outline": "as §1"}, "[6]": {"molecular_target": "Fuc(a1-2)Gal(b1-3)GlcNAc(b1-2)Man(a1-3)[Fuc(a1-2)Gal(b1-3)GlcNAc(b1-2)Man(a1-6)]Man(b1-4)GlcNAc(b1-4)GlcNAc", "outline": "as §1"}, "[7]": {"molecular_target": "Fuc(a1-2)Gal(b1-3)GlcNAc(b1-2)Man(a1-3)[Fuc(a1-2)Gal(b1-3)GlcNAc(b1-2)Man(a1-6)]Man(b1-4)GlcNAc(b1-4)[Fuc(a1-6)]GlcNAc", "outline": "as §1"}, "[8]": {"molecular_target": "Fuc(a1-2)Gal(b1-3)GlcNAc(b1-3)Gal(b1-4)Glc", "outline": "as §1"}, "[9]": {"molecular_target": "Fuc(a1-2)Gal(b1-3)GlcNAc(b1-3)GalNAc", "outline": "as §1"}, "[10]": {"molecular_target": "Fuc(a1-2)Gal(b1-3)GlcNAc(b1-3)[Fuc(a1-2)Gal(b1-3)GlcNAc(b1-6)]GalNAc", "outline": "as §1"}, "[11]": {"molecular_target": "Fuc(a1-2)Gal(b1-3)GlcNAc(b1-3)[Gal(b1-4)GlcNAc(b1-6)]Gal(b1-4)Glc", "outline": "as §1"}, "[12]": {"molecular_target": "Fuc(a1-2)Gal(b1-3)GlcNAc(b1-3)[Neu5Ac(a2-6)Gal(b1-4)GlcNAc(b1-6)]Gal(b1-4)Glc", "outline": "as §1"}, "[13]": {"molecular_target": "Fuc(a1-2)Gal(b1-3)GlcNAc6S", "outline": "as §1"}, "[14]": {"molecular_target": "Fuc(a1-2)Gal(b1-3)[Fuc(a1-4)]GlcNAc", "outline": "as §1"}, "[15]": {"molecular_target": "Fuc(a1-2)Gal(b1-3)[Fuc(a1-4)]GlcNAc(b1-2)Man(a1-3)[Fuc(a1-2)Gal(b1-3)[Fuc(a1-4)]GlcNAc(b1-2)Man(a1-3)]Man(b1-4)GlcNAc(b1-4)GlcNAc", "outline": "as §1"}, "[16]": {"molecular_target": "Fuc(a1-2)Gal(b1-3)[Fuc(a1-4)]GlcNAc(b1-2)Man(a1-3)[Fuc(a1-2)Gal(b1-3)[Fuc(a1-4)]GlcNAc(b1-2)Man(a1-6)]Man(b1-4)GlcNAc(b1-4)[Fuc(a1-6)]GlcNAc(b1-4)[Fuc(a1-6)]GlcNAc", "outline": "as §1"}, "[17]": {"molecular_target": "Fuc(a1-2)Gal(b1-3)[Fuc(a1-4)]GlcNAc(b1-3)[Fuc(a1-3)[Gal(b1-4)]GlcNAc(b1-6)]Gal(b1-4)Glc", "outline": "as §1"}, "[18]": {"molecular_target": "Fuc(a1-2)Gal(b1-3)[Fuc(a1-4)]GlcNAc(b1-3)[Gal(b1-4)GlcNAc(b1-6)]Gal(b1-4)Glc", "outline": "as §1"}, "Fuc(a1-2)Gal(b1-4)Glc": {"molecular_target": "Fuc(a1-2)Gal(b1-4)Glc", "outline": "as §1"}, "Fuc(a1-2)Gal(b1-4)Glc6S": {"molecular_target": "Fuc(a1-2)Gal(b1-4)Glc6S", "outline": "as §1"}, "Fuc(a1-2)Gal(b1-4)GlcNAc": {"molecular_target": "Fuc(a1-2)Gal(b1-4)GlcNAc", "outline": "as §1"}, "[19]": {"molecular_target": "Fuc(a1-2)Gal(b1-4)GlcNAc(b1-2)Man", "outline": "as §1"}, "[20]": {"molecular_target": "Fuc(a1-2)Gal(b1-4)GlcNAc(b1-2)Man(a1-3)[Fuc(a1-2)Gal(b1-4)GlcNAc(b1-2)Man(a1-6)]Man(b1-4)GlcNAc(b1-4)GlcNAc", "outline": "as §1"}, "[21]": {"molecular_target": "Fuc(a1-2)Gal(b1-4)GlcNAc(b1-2)Man(a1-3)[Fuc(a1-2)Gal(b1-4)GlcNAc(b1-2)Man(a1-6)]Man(b1-4)GlcNAc(b1-4)[Fuc(a1-6)]GlcNAc", "outline": "as §1"}, "[22]": {"molecular_target": "Fuc(a1-2)Gal(b1-4)GlcNAc(b1-2)[Fuc(a1-2)Gal(b1-4)GlcNAc(b1-4)]Man(a1-3)[Fuc(a1-2)Gal(b1-4)GlcNAc(b1-2)Man(a1-6)]Man(b1-4)GlcNAc(b1-4)GlcNAc", "outline": "as §1"}, "[23]": {"molecular_target": "Fuc(a1-2)Gal(b1-4)GlcNAc(b1-3)Gal(b1-4)GlcNAc", "outline": "as §1"}, "[24]": {"molecular_target": "Fuc(a1-2)Gal(b1-4)GlcNAc(b1-3)Gal(b1-4)GlcNAc(b1-2)Man(a1-3)[Fuc(a1-2)Gal(b1-4)GlcNAc(b1-3)Gal(b1-4)GlcNAc(b1-2)Man(a1-6)]Man(b1-4)GlcNAc(b1-4)GlcNAc", "outline": "as §1"}},
  "note": "Some of the results follow.",
  "data": [
    {"binder": "PX9916F-bfa-443-24-443 (Bacteroides fragilis) (protein) DIRPVGSVIPQTAEEYRALLARAYLNVPNDRGLACLRSDEMLVNDNEYDRNSYGDIERWNDVSPFPGTSQFTWSNFYNVLFIANQVIESQKEITEGTPEVVNQLVGEAHLLRAYLHFVLVNLHGQPYTKSGALNSKSIPLKLDTDLEKTLGRNTVEEVYTSILSDIEHARELINKEKWETVFSYRFNVLSVDALQSRVSLYMGAWPKCLESAEAVLAKKSVLVDMNETPLALPNHFESVESITALEQVMGSSVNNAVWVPATFLALYQEGDKRLAAYFAAPDENGNRKSSKGGKREFSCTFRVGELYLNAAEAAANMDKLPHARMRLLELMRKRYTPEAYDKKENAVNVMDKNALISEILNERARELAFEGHRWFDLRRTTRPRMVKVLQGKTYILEQDDPRYTIPIPRDAIAANPGLAN", "values": [
      {"measurement": "glycan array binding signal (z-score)", "setting": "Fuc(a1-2)Gal", "value": 0.215},
      {"measurement": "glycan array binding signal (z-score)", "setting": "Fuc(a1-2)Gal(b1-3)GalNAc", "value": 0.079},
      {"measurement": "glycan array binding signal (z-score)", "setting": "[1]", "value": -0.506},
      {"measurement": "glycan array binding signal (z-score)", "setting": "[2]", "value": -0.051},
      {"measurement": "glycan array binding signal (z-score)", "setting": "[3]", "value": 0.673},
      {"measurement": "glycan array binding signal (z-score)", "setting": "[4]", "value": -0.012},
      {"measurement": "glycan array binding signal (z-score)", "setting": "[5]", "value": -0.891},
      {"measurement": "glycan array binding signal (z-score)", "setting": "Fuc(a1-2)Gal(b1-3)GlcNAc", "value": -0.185},
      {"measurement": "glycan array binding signal (z-score)", "setting": "[6]", "value": 3.24},
      {"measurement": "glycan array binding signal (z-score)", "setting": "[7]", "value": 0.444},
      {"measurement": "glycan array binding signal (z-score)", "setting": "[8]", "value": -0.998},
      {"measurement": "glycan array binding signal (z-score)", "setting": "[9]", "value": 0.31},
      {"measurement": "glycan array binding signal (z-score)", "setting": "[10]", "value": -0.372},
      {"measurement": "glycan array binding signal (z-score)", "setting": "[11]", "value": 1.47},
      {"measurement": "glycan array binding signal (z-score)", "setting": "[12]", "value": -0.429},
      {"measurement": "glycan array binding signal (z-score)", "setting": "[13]", "value": -0.338},
      {"measurement": "glycan array binding signal (z-score)", "setting": "[14]", "value": 0.301},
      {"measurement": "glycan array binding signal (z-score)", "setting": "[15]", "value": -0.043},
      {"measurement": "glycan array binding signal (z-score)", "setting": "[16]", "value": 0.523},
      {"measurement": "glycan array binding signal (z-score)", "setting": "[17]", "value": -0.27},
      {"measurement": "glycan array binding signal (z-score)", "setting": "[18]", "value": 1.83},
      {"measurement": "glycan array binding signal (z-score)", "setting": "Fuc(a1-2)Gal(b1-4)Glc", "value": -1.03},
      {"measurement": "glycan array binding signal (z-score)", "setting": "Fuc(a1-2)Gal(b1-4)Glc6S", "value": 0.015},
      {"measurement": "glycan array binding signal (z-score)", "setting": "Fuc(a1-2)Gal(b1-4)GlcNAc", "value": -0.289},
      {"measurement": "glycan array binding signal (z-score)", "setting": "[19]", "value": 0.848},
      {"measurement": "glycan array binding signal (z-score)", "setting": "[20]", "value": 0.225},
      {"measurement": "glycan array binding signal (z-score)", "setting": "[21]", "value": -0.092},
      {"measurement": "glycan array binding signal (z-score)", "setting": "[22]", "value": 0.619},
      {"measurement": "glycan array binding signal (z-score)", "setting": "[23]", "value": -0.888},
      {"measurement": "glycan array binding signal (z-score)", "setting": "[24]", "value": -0.159}
    ]}
  ]
}
